No constants are given. Whether binding was seen depends on the method and setting. Some binding calls cover weakened binding; strength is not graded here. For some assays here: Where a sequence is shown, tags or fusion partners need not be part of it.
T1: B7H3-V1-V2-His (human) (UniProt Q5ZPR3)
T1 sequence (antigen fragment, looked up): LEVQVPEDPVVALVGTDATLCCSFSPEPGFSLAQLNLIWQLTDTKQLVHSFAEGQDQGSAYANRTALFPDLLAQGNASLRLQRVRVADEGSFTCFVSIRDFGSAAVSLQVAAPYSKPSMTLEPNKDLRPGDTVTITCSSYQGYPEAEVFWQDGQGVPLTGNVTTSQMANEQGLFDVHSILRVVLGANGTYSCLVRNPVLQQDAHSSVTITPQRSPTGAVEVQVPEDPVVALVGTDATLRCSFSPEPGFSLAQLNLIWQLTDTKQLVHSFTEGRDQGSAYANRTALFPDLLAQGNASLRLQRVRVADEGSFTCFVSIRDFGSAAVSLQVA

T2: B7H3 on cells (B7H3 on HEK293 cells; B7H3 expressed from plasmid on HEK-293T and QT6 cells) (human) (UniProt Q5ZPR3)
T2 sequence (looked up): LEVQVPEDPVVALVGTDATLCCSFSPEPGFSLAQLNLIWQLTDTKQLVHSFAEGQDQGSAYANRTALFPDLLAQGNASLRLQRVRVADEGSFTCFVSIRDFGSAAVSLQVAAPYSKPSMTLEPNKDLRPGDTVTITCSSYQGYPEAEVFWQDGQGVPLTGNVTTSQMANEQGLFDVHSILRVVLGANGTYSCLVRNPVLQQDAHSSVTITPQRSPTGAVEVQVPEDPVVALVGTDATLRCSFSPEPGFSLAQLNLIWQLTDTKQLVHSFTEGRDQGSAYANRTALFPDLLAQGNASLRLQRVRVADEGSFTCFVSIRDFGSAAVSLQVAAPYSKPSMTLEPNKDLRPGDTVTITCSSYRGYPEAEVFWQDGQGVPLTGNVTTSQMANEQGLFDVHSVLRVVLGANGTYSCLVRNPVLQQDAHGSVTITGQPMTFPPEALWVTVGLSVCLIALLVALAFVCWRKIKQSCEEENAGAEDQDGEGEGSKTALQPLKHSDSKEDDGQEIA


Tests used:
B7H3-V1-V2-His (human) = molecular target: T1, B7H3-V1-V2-His (human); test: indirect ELISA, antigen coated at 0.2 µg/mL, antibody at 0.5 µg/mL, HRP-labelled secondary antibody; y axis without title
[1] = molecular target: T2, B7H3 on cells (B7H3 on HEK293 cells; B7H3 expressed from plasmid on HEK-293T and QT6 cells) (human); test: flow cytometry on HEK293 cells
[2] = molecular target: T2, B7H3 on cells (B7H3 on HEK293 cells; B7H3 expressed from plasmid on HEK-293T and QT6 cells) (human); test: flow cytometry on HEK293 cells, FITC-labelled secondary antibody

| Binder | binding (B7H3-V1-V2-His (human)) | binding [1] | binding [2] |
| --- | --- | --- | --- |
| humanized 6F7 with light chain variable region LV1 (antibody, V domains shown) VH: EVQLVESGGGLVQPGGSLRLSCAASGFTFTDYYMSWVRQAPGKGLEWVAFIRNKANGYTTEYSASVKGRFTISRDDSKNSLYLQMNSLRAEDTAVYYCARDSHYRPFAYWGQGTLVTVSS VL: DIVMTQSPLSLPVTPGEPASISCKSSQSLLNSGNQNNYLTWYLQKPGQSPQLLIYLASTRDSGVPDRFSGSGSGTDFTLKISRVEAEDVGVYYCQNDYTYPLTFGGGTKVEIKR | – | binds | binds |
| humanized 6F7 with light chain variable region LV2 (antibody, V domains shown) VH: EVQLVESGGGLVQPGGSLRLSCAASGFTFTDYYMSWVRQAPGKGLEWVAFIRNKANGYTTEYSASVKGRFTISRDDSKNSLYLQMNSLRAEDTAVYYCARDSHYRPFAYWGQGTLVTVSS VL: DIVMTQSPDSLAVSLGERATINCKSSQSLLNSGNQNNYLTWYQQKPGQPPKLLIYLASTRDSGVPDRFSGSGSGTDFTLTISSLQAEDVAVYYCQNDYTYPLTFGGGTKVEIKR | – | binds | binds |
| anti-B7H3 antibody 2B8 (antibody, V domains shown) VH: QVQLQQSGPELVRPGVSVKISCKVSGYTFTDGAMHWVKRSHAKSLEWIGIINTNSGNTNYNQKFQGKATMTVDKSSSTAYMELARLTSEDSAIYYCARGVFYYGYGAWFAYWGQGTLVTVSA VL: DVQITQSPSYLTASPGETIIINCRASKTISNYLAWYQEKPGKTNKLLIYSGSTLQSGIPSRFSGSGSDTDFTLTISSLEPEDFAMYYCQQHHEYPLTFGAGTKLELKR | binds | – | – |

Further lines, with some results ahead:

| binding (B7H3-V1-V2-His (human)) | Binder | binding [1] | binding [2] |
| --- | --- | --- | --- |
| binds | anti-B7H3 antibody 6F7 (antibody, V domains shown) VH: EVKLVESGGGLVQPGGSLRLSCATSGFTFTDYYMSWVRQPPGKALEWLGFIRNKANGYTTEYSASVKGRFTISSDDSQSILYLQMNTLRAEDSATYYCARDSHYRPFAYWGQGTLVTVSA VL: DIQMTQSPSSLTVTAGEKVTMSCKSSQSLLNSGNQNNYLTWYQQKPGQPPKLLIYLASTRDSGVPDRFTGSGSGTDFTLTISSVQAEDLAVYYCQNDYTYPLTFGAGTKLELKR | – | – |
| binds | anti-B7H3 antibody 23H1 (antibody, V domains shown) VH: EVKLVESGGGLVQPGGSLRLSCATSGFTFTDYYMSWVRQPPGKALEWLGFIRNKVNDYTTEYSVSVKGRFTISRDNSQTILYLQMNTLRAEDSATYYCARDSPYRPFAYWGQGTLVTVSA VL: DIVMTQSPSSLTVTAGENVTMSCKSSQTLLNNGNQKNFLTWYQQKPGQPPKLLIYLASTRESGVPDRFTGSGSGTDFTLTISSVQAEDLAVYYCQNDYTYPLTFGAGTKLELKR | – | – |
| binds | anti-B7H3 antibody 26B6 (antibody, V domains shown) VH: EVQLQQSGPELVKPGASVKISCKTSGYAFTEYTMHWVKQSQGKSLEWIGGINPNTGGTTYNQKFNGKATLTVDRSSSTAYMELRSLTSEDSAVYYCTRPYRDDGGFHWYFDVWGAGTAVTVSS VL: QIVLTQSPAVMSTSPGEKVTMTCSASSSVSYMQWYQQKSGTSPKRWIYDTSKLTSGVPARFSGSGSGTSYSLTISSMEAEDAATYYCQQWSSNPLTFGAGTKLELKR | – | – |

— US20250011430A1
